This is an account of results in paper PMC9830501.

Sequences of proteins named here, by UniProt entry; tags and fusion partners are left off.
UniProt Q9JK66: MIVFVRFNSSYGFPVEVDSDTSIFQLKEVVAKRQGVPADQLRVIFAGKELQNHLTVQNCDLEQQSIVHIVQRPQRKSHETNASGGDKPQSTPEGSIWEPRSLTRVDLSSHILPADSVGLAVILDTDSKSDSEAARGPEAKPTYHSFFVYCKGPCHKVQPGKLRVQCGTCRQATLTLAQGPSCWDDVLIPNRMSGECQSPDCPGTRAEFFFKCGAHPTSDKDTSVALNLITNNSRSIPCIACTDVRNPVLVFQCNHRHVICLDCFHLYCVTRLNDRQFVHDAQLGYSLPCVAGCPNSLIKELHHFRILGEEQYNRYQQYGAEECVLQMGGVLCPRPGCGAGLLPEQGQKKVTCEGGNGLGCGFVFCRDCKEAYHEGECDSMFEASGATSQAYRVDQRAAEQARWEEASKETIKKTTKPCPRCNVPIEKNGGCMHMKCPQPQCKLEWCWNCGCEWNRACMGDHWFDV

Test [1] concerns the target Parkin (rat (endogenous in NP cells)) (UniProt Q9JK66). The test is described as follows: co-IP; endogenous proteins; whole cell lysate of rat NP cells treated with 0 or 20 ng/ml IL-1β for 48h; IP with control IgG, anti-Sesn2, anti-Parkin or anti-Sqstm1 antibody, protein A agarose, 4°C; immunoblot.
Test [2] addresses Sqstm1 (rat (endogenous in NP cells)) (UniProt O08623). The description is as above.

These are yes or no findings as the source states them, for the method shown. In cells and extracts the contact can be indirect. Some results given as binding are weak or reduced against the parent protein; the word gives no strength.

B1: Sestrin 2 (Sesn2) (protein, UniProt A0A8I5Y865 1-480)
chain: MIVADSECHGEIKGYLPFTRGGVAGPGTREEHREGQARRGPRGPSAFIPVEEILREGAESLEQHLGLEALMSSGRVDNLAVVMGLHPDYLSSFWRLHYLLLHTDGPLASSWRHYIAIMAAARHQCSYLVGSHMTEFLQTGGDPEWLLGLHRAPEKLRKLSEINKLLAHRPWLITKEHIQALLKTGEHSWSLAELIQALVLLTHCHCLASFVFGCGILPEGDAEGSPASQAPSPPSEQGGPPSRDPLNNSGGFEAARDIEALMERMRQLQESLLRDEGASQEEMENRFELEKTESLLVTPSADILEPSPHPDILCFVEDPTFGYEDFTRRGTQAPPTFRAQDYTWEDHGYSLIQRLYPEGGQLLDEKFQVAYSLTYNTIAMHSGVDTSMLRRAVWNYIHCVFGIRYDDYDYGEVNQLLERNLKIYIKTVACYPEKTTRRMYNLFWRHFRHSEKVHVNLLLLEARMQAALLYALRAITRYMT
As to B1, the binding result in test [1] and in test [2] was “binds” throughout.
